Experimental data reported in article PMC6134322.
These are yes or no findings as the source states them, for the method shown. Binding seen in cells or lysates may run through a third protein. Some binding calls cover weakened binding; strength is not graded here.

Amino acid sequences for entries named in this document (tags omitted).
UniProt P11530: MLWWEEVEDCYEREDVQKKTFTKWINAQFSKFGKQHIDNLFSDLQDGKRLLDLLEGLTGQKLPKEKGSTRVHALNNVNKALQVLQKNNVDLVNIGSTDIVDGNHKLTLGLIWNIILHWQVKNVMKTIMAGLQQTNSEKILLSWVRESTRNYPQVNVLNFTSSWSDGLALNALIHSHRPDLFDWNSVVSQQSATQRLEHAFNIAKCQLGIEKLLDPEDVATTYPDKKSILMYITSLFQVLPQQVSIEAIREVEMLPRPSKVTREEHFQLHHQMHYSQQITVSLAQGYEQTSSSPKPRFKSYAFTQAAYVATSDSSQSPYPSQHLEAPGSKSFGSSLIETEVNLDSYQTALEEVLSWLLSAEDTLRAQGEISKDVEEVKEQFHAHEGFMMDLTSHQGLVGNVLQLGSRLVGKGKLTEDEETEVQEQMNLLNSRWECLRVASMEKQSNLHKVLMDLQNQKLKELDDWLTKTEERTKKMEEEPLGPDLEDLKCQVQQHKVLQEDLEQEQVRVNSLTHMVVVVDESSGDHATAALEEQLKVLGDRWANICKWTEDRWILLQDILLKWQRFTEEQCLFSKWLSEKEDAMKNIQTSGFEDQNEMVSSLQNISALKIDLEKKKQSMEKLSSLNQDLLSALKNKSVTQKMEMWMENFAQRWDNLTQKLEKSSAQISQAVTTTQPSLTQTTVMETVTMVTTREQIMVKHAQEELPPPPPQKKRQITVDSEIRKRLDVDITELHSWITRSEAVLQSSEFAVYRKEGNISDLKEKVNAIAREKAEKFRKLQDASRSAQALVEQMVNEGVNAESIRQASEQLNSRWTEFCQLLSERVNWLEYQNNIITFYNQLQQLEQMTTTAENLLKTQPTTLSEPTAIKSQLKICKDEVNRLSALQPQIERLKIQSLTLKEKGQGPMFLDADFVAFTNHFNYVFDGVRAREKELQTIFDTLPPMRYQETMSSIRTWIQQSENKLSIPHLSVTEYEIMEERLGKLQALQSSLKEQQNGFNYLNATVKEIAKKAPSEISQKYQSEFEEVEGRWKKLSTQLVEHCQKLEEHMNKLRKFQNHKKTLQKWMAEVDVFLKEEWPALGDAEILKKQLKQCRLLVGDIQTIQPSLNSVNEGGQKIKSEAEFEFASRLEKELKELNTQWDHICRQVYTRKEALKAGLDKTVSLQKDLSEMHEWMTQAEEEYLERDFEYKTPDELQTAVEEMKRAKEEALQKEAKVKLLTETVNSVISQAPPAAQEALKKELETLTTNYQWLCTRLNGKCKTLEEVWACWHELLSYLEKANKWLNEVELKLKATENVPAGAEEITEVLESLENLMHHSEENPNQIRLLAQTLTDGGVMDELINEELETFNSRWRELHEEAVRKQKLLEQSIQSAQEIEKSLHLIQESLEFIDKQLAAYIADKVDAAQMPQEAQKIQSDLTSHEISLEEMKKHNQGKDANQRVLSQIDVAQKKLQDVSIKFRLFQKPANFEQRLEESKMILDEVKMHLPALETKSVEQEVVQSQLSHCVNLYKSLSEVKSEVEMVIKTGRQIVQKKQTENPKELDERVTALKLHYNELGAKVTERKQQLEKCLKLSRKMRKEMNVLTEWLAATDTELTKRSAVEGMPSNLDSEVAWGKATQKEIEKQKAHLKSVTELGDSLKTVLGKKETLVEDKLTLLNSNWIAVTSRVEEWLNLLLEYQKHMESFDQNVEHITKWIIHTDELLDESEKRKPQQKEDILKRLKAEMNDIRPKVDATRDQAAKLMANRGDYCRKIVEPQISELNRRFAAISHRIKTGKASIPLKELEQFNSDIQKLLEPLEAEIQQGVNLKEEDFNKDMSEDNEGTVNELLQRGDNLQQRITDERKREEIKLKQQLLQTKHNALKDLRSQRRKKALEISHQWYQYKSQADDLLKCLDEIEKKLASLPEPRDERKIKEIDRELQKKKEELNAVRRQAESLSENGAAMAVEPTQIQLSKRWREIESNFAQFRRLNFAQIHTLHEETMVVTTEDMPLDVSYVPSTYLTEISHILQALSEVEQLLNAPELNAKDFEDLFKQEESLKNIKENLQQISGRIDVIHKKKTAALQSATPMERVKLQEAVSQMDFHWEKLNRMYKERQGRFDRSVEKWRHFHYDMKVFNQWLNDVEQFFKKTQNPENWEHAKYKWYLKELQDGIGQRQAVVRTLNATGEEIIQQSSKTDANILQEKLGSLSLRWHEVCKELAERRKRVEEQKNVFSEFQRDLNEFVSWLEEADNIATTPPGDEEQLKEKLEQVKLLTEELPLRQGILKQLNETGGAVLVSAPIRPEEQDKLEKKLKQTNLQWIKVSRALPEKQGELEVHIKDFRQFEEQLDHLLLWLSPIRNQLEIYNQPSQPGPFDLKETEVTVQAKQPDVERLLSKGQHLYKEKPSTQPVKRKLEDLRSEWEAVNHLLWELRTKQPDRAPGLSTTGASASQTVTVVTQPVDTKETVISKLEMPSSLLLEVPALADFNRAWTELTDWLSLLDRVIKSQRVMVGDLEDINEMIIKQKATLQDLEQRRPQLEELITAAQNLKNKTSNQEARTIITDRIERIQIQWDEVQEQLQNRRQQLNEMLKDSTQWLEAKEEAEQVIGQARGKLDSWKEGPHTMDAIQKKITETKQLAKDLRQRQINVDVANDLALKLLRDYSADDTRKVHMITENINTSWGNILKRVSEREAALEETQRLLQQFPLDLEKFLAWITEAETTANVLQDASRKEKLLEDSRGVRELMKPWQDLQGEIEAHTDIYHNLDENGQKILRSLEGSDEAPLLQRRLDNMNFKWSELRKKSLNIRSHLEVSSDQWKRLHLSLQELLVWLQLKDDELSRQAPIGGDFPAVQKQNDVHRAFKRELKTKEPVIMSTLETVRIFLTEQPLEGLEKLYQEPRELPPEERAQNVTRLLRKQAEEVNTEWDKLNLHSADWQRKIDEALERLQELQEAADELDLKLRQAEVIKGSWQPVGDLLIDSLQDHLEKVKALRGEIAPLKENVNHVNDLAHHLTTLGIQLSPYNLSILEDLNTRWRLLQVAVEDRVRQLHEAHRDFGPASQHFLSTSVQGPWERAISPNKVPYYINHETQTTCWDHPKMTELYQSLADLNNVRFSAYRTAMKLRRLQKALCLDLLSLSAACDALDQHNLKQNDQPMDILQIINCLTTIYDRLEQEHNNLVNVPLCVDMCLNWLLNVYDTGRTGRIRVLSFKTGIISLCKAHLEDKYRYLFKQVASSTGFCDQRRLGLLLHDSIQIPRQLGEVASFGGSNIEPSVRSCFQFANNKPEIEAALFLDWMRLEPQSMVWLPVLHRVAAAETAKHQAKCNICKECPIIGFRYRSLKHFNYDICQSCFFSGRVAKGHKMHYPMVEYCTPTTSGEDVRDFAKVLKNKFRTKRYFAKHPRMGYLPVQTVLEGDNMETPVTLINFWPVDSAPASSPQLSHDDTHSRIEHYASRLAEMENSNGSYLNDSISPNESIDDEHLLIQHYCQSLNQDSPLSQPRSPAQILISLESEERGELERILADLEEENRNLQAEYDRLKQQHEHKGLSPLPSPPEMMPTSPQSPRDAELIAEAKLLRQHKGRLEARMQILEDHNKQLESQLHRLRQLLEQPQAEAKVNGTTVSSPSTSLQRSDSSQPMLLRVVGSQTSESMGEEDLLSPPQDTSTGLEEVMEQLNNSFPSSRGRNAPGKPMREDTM
UniProt O70511: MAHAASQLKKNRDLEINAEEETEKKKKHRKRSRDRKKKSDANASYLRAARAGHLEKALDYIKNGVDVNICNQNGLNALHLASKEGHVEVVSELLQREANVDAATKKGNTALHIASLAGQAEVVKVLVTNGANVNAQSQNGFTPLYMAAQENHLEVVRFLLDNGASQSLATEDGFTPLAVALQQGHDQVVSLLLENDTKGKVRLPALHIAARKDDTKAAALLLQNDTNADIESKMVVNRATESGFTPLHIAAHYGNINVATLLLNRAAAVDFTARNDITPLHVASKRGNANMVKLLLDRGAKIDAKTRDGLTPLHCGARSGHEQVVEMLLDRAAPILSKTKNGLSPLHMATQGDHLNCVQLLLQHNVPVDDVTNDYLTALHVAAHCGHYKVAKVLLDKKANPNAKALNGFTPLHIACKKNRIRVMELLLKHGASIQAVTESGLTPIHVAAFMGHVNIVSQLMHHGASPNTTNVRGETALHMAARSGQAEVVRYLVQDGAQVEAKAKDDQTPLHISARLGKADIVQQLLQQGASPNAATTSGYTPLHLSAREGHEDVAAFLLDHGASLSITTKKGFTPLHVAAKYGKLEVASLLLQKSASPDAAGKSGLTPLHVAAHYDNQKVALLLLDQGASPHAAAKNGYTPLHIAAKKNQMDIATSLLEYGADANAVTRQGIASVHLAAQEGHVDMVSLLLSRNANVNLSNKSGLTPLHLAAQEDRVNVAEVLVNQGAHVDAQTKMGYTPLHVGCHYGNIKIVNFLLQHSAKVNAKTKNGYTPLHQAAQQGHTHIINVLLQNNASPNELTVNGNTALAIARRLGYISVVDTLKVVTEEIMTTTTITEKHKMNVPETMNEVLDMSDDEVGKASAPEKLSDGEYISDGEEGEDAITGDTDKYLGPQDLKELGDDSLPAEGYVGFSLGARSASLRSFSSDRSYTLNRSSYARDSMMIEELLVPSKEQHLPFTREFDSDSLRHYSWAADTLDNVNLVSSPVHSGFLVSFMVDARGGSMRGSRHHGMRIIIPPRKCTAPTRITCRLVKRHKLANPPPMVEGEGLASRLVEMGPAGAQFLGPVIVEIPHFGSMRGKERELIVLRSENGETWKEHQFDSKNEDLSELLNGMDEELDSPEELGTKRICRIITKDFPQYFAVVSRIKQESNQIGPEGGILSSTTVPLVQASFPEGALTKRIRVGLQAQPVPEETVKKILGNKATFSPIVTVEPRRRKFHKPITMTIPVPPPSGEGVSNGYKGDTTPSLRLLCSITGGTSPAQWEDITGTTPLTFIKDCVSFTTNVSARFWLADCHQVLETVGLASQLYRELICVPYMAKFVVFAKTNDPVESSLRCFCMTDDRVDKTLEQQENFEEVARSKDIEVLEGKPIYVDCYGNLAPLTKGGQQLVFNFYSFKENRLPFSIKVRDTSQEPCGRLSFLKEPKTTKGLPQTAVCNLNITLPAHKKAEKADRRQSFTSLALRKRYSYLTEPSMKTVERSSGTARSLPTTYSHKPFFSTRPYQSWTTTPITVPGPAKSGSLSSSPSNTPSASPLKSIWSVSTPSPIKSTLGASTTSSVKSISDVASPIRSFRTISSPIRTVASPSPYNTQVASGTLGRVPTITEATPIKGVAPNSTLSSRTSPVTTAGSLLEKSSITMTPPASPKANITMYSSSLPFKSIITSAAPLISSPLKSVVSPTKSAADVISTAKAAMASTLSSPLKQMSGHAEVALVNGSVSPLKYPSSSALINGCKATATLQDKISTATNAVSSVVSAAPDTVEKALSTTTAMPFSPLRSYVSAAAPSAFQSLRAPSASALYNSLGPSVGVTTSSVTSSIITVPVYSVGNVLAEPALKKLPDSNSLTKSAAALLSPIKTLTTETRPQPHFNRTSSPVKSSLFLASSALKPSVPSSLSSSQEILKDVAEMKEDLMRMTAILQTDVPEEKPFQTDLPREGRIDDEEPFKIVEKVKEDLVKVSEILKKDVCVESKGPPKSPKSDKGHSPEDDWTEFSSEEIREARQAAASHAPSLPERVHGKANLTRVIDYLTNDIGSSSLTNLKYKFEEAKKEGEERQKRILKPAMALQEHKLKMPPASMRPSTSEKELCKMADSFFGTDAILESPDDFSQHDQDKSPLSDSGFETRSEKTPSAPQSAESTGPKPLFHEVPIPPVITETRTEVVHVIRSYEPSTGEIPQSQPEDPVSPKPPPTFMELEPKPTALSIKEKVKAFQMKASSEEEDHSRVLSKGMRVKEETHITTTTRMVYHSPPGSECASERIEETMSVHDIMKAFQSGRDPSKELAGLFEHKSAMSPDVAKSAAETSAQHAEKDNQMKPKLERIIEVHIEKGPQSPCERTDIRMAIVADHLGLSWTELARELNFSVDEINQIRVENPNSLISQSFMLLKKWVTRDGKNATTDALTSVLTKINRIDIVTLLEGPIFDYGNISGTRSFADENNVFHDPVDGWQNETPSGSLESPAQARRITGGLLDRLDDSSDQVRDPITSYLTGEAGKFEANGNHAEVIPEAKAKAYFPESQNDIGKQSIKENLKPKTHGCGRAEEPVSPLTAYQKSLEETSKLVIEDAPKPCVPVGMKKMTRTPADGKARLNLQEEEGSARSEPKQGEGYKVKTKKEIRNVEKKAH

Tests used:
[1] = biological target: dystrophin (rat (endogenous in neonatal rat ventricular myocytes)) (UniProt P11530); assay: co-IP; lysate (RIPA buffer) of neonatal rat ventricular myocytes without amitriptyline; precipitated with anti-ankyrin-G or anti-dystrophin antibody and protein A/G beads at 4°C, blotted with anti-Nav1.5
[2] = biological target: ankyrin-G (rat (endogenous in neonatal rat ventricular myocytes)) (UniProt O70511); assay: as above
[3] = biological target: dystrophin (rat (endogenous in neonatal rat ventricular myocytes)) (UniProt P11530); assay: co-IP; lysate (RIPA buffer) of neonatal rat ventricular myocytes after 24 h of incubation with amitriptyline (1.0 μM); precipitated with anti-ankyrin-G or anti-dystrophin antibody and protein A/G beads at 4°C, blotted with anti-Nav1.5
[4] = biological target: ankyrin-G (rat (endogenous in neonatal rat ventricular myocytes)) (UniProt O70511); assay: as above

“Nav1.5 channel protein (from UniProt P15389 1-2019)” was tested, and the binding [1] was “binds”, the binding [2] was “binds” and the binding [3] was “binds weakly”. The binding [4] was “binds weakly”.
